# Measurements published in patent publication US20180085385A1, “GLUCOSE-SENSITIVE CELL PROTECTING AGENT” (THE UNIVERSITY OF TOKYO, priority 2015, published 2018).
# At least one compound was matched to its structure with a doubt left.
# How the values were obtained:
# [1] = tested on: renal proximal tubule epithelial cells derived from type II diabetes patients (D-RPTEC); test: Histone O-GlcNAc modification level in D-RPTEC by immunofluorescence staining; type: cell-based, human; conditions: D-RPTEC cultured 96 hr under high glucose (25 mM glucose)
# Experimental: Normal human renal proximal tubule epithelial cells and RPTEC derived from type II diabetes patients (D-RPTEC) were purchased from Lonza. RPTEC and D-RPTEC maintained with REGM™ Renal Epithelial Cell proliferation Medium Bullet Kit (Lonza) were each seeded in a 4-well dish at 1×10^4 cells per 1 well, and cultured for 4 days in a control medium or high glucose medium (adjusted to final concentration of 25 mM with 2.5 M glucose solution).
# The cultured cells were fixed with 4% para-formaldehyde for 20 min and, after a permeabilization treatment with 0.2% TritonX-100-PBS solution, treated overnight with a blocking solution [PBS(−) containing 5% bovine serum-derived albumin (BSA), 0.1% Tween20, 0.2% TritonX-100] at 4° C. Then, the cells were reacted with anti-histone O-GlcNAc antibody (20B2) diluted with 5% BSA-PBS(−)-0.1% Tween20 at 4° C. overnight, reacted with secondary antibody diluted with PBS(−) at room temperature for 1 hr. The nucleus was stained with 1 μg/ml DAPI (Dojindo) at room temperature for 20 min, mounted in mountant (VECTASHIELD), and slides were prepared. Observation was performed with an integrated confocal laser microscope (FV10i, OLYMPUS). After obtaining images, the number of O-GlcNAc signals in the nucleus was measured by image analysis software Cell Profiler (www.cellprofiler.org), and statistical processing was performed by Wilcoxon rank-sum test. […]
# [2] = tested on: orexin nerve cells differentiated from human iPS cells; test: Protection or recovery of orexin nerve cells under high glucose by various ManNAc derivatives (Example 3); type: cell-based; conditions: 12-day course: high glucose 25 mM from day 0, compound 1 μM added from +day 8, harvested +day 12
# Experimental: Total RNA was extracted from the harvested cells by using RNeasy plus Mini Kit (QIAGEN). Then, using SuperScript III First Strand Synthesis System (Invitrogen), a reverse transcription reaction was performed in a reaction mixture containing total RNA (1 μg) and Oligo (dT), whereby cDNA was synthesized.
# PCR reaction was performed on a 10 μl scale, 1 U LA-Tag DNA Polymerase (Takara) was added to 0.5 μl of cDNA, 5 μl of 2×GC Buffer I, 200 μM of each dNTP, 1.5 mM MgCl2 and final concentration 0.2 μM of each primer and, after heat denaturation at 95° C. for 3 min, and PCR was performed under the conditions of (95° C. 30 sec, 55° C. 30 sec, 72° C. 30 sec)×35 cycles (20 cycles for Actb). The primers used are shown below. […]
# The orexin nerve cells were cultured in a neuronal differentiation medium (G-MEM+10% KSR (KnockOut Serum Replacement, Invitrogen)) for 8 days or 12 days, and maintained in vitro. […] In the 8-day culture course, glucose and ManNAc or various ManNAc derivatives were added to the medium from the start of the culture (+day 0), the cells were harvested on +day 8 the orexin expression was analyzed. […] In the 12-day culture course, high glucose was added from the start of the culture (+day 0), ManNAc or various ManNAc derivatives were added to the medium from +day 8 from the start of the culture, the cells were harvested on +day 12, and the orexin expression was analyzed. […]
compound,measurement,setting,value
"O=C(CF)NC1C(O)SC(CO)[C@@H](O)[C@@H]1O (stereo partly drawn) [5S-ManNAcF, 2-fluoroacetamido-2-deoxy-5-thio-D-mannopyranose]",histone O-GlcNAc modification level,[1],increase in the histone O-GlcNAc modification level was observed
same,recovery activity of orexin production (Hcrt expression intensity),[2],low activity
